Source: US20150368236A1, “2-(PYRIDIN-3-YL)-5-HETARYL-THIAZOLE COMPOUNDS CARRYING AN IMINE OR IMINE-DERIVED SUBSTITUENT FOR COMBATING INVERTEBRATE PESTS” (BASF SE, priority 2012, published 2015)
Some of these results come from one statement about several compounds together.

Experiments:
Type in all cases: in vivo
[1] = system: Silverleaf Whitefly (Bemisia Argentifolii); conditions: 300 ppm; sprayed cotton plants; whitefly adults; 3 days after treatment
Description: (§1) The active compounds were formulated in cyclohexanone as a 10,000 ppm solution supplied in 1.3 ml ABgene® tubes. These tubes were inserted into an automated electrostatic sprayer equipped with an atomizing nozzle and they served as stock solutions for which lower dilutions were made in 1:1 (vol:vol) water:aceton. A nonionic surfactant (Kinetic®) was included in the solution at a volume of 0.01% (v/v).
Cotton plants at the cotyledon stage (one plant per pot) were sprayed by an automated electrostatic plant sprayer equipped with an atomizing spray nozzle. The plants were dried in the sprayer fume hood and then removed from the sprayer. Each pot was placed into a plastic cup and 10 to 12 whitefly adults (approximately 3 to 5 days old) were introduced. The insects were collected using an aspirator and 0.6 cm, nontoxic Tygon® tubing (R-3603) connected to a barrier pipette tip. The tip, containing the collected insects, was then gently inserted into the soil containing the treated plant, allowing insects to crawl out of the tip to reach the foliage for feeding. Cups were covered with a reusable screened lid (150-micron mesh polyester screen PeCap from Tetko, Inc.). Test plants were maintained in a growth room at 25° C. and 20-40% relative humidity for 3 days, avoiding direct exposure to fluorescent light (24 hour photoperiod) to prevent trapping of heat inside the cup. Mortality was assessed 3 days after treatment, compared to untreated control plants.

[2] = system: vetch aphid (Megoura viciae); conditions: 800 ppm; sprayed broad bean leaf disks; adult aphids; 5 days
Description: For evaluating control of vetch aphid (Megoura viciae) through contact or systemic means the test unit consisted of 24-well-microtiter plates containing broad bean leaf disks.
The compounds were formulated using a solution containing 75% v/v water and 25% v/v DMSO. Different concentrations of formulated compounds were sprayed onto the leaf disks at 2.5 μl, using a custom built micro atomizer, at two replications.
After application, the leaf disks were air-dried and 5 to 8 adult aphids were placed on the leaf disks inside the microtiter plate wells. The aphids were then allowed to suck on the treated leaf disks and were incubated at about 23±1° C. and about 50±5% relative humidity for 5 days. Aphid mortality and fecundity were then visually assessed.

[3] = system: Cotton Aphid (Aphis gossypii); conditions: 300 ppm; infested cotton plants sprayed; after 5 days
Description: as §1, with “10′ 000” for “10,000”
Cotton plants at the cotyledon stage were infested with aphids prior to treatment by placing a heavily infested leaf from the main aphid colony on top of each cotyledon. Aphids were allowed to transfer overnight to accomplish an infestation of 80-100 aphids per plant and the host leaf was removed. The infested plants were then sprayed by an automated electrostatic plant sprayer equipped with an atomizing spray nozzle. The plants were dried in the sprayer fume hood, removed from the sprayer, and then maintained in a growth room under fluorescent lighting in a 24-hr photoperiod at 25° C. and 20-40% relative humidity. Aphid mortality on the treated plants, relative to mortality on untreated control plants, was determined after 5 days.

[4] = system: Cowpea Aphid (Aphis craccivora); conditions: 300 ppm; colonized cowpea plants sprayed; population reduction assessed after 24, 72 and 120 hours
Description: The active compound was dissolved at the desired concentration in a mixture of 1:1 (vol:vol) distilled water:acetone. The test solution was prepared at the day of use. Potted cowpea plants colonized with approximately 100 to 150 aphids of various stages were sprayed after the pest population had been recorded. Population reduction was assessed after 24, 72, and 120 hours.

[5] = system: green peach aphid (Myzus persicae); conditions: 800 ppm; in aphid diet under artificial membrane; adult aphids; 3 days
Excerpt: For evaluating control of green peach aphid (Myzus persicae) through systemic means the test unit consisted of 96-well-microtiter plates containing liquid artificial diet under an artificial membrane.
The compounds were formulated using a solution containing 75% v/v water and 25% v/v DMSO. Different concentrations of formulated compounds were pipetted into the aphid diet, using a custom built pipetter, at two replications.
After application, 5 to 8 adult aphids were placed on the artificial membrane inside the microtiter plate wells. The aphids were then allowed to suck on the treated aphid diet and were incubated at about 23±1° C. and about 50±5% relative humidity for 3 days. Aphid mortality and fecundity was then visually assessed.

Measured: mortality in comparison with untreated controls

C(=NOCc1ccccc1)c1cccc(-c2cnc(-c3cccnc3)s2)n1 [Compound 1-7]
not listed: [5]
at least 75%: all other assays above

Fc1ccccc1NN=Cc1cccc(-c2cnc(-c3cccnc3)s2)n1 [Compound 3-14]
not listed: [2]
at least 75%: all other assays above

CN(C)N=Cc1cccc(-c2cnc(-c3cccnc3)s2)n1 [Compound 1-8]
at least 75%: all assays above

C(=NNc1cccc2ccccc12)c1cccc(-c2cnc(-c3cccnc3)s2)n1 [Compound 3-8]
at least 75%: [1] | [2] | [4]

CCON=Cc1cccc(-c2cnc(-c3cccnc3)s2)n1 [Compound 1-2]
at least 75%: all assays above

Fc1cccc(NN=Cc2cccc(-c3cnc(-c4cccnc4)s3)n2)c1 [Compound 3-15]
at least 75%: all assays above

COc1ccc(NN=Cc2cccc(-c3cnc(-c4cccnc4)s3)n2)cc1 [Compound 3-19]
not listed: [5]
at least 75%: all other assays above

Clc1ccc(NN=Cc2cccc(-c3cnc(-c4cccnc4)s3)n2)cc1 [Compound 3-4]
at least 75%: all assays above

C=CCON=Cc1cccc(-c2cnc(-c3cccnc3)s2)n1 [Compound 1-5]
not listed: [5]
at least 75%: all other assays above

FC(F)(F)Oc1ccc(NN=Cc2cccc(-c3cnc(-c4cccnc4)s3)n2)cc1 [Compound 3-7]
at least 75%: all assays above

C#CCON=Cc1cccc(-c2cnc(-c3cccnc3)s2)n1 [Compound 1-6]
not listed: [5]
at least 75%: all other assays above

CC(=NOC(C)C)c1cccc(-c2cnc(-c3cccnc3)s2)n1 [Compound 3-41]
not listed: [5]
at least 75%: all other assays above

Fc1cc(F)cc(NN=Cc2cccc(-c3cnc(-c4cccnc4)s3)n2)c1 [Compound 3-5]
at least 75%: all assays above

C(=NNc1ccccc1)c1cccc(-c2cnc(-c3cccnc3)s2)n1 [Compound 1-9]
at least 75%: all assays above

CN(C)N=Cc1ccc(-c2cnc(-c3cccnc3)s2)nc1 [Compound 4-2]
not listed: [5]
at least 75%: all other assays above

C(=NN1CCOCC1)c1cccc(-c2cnc(-c3cccnc3)s2)n1 [Compound 3-11]
at least 75%: all assays above

CON=Cc1cccc(-c2sc(-c3cccnc3)nc2C(F)(F)F)n1 [Compound 3-56]
at least 75%: [1] | [2] | [4]

C(=NN(Cc1ccccc1)c1ccccc1)c1cccc(-c2cnc(-c3cccnc3)s2)n1 [Compound 3-35]
at least 75%: all assays above

C(=NOCC1CC1)c1cccc(-c2cnc(-c3cccnc3)s2)n1 [Compound 1-4]
not listed: [5]
at least 75%: all other assays above

CC(C)ON=Cc1cccc(-c2cnc(-c3cccnc3)s2)n1 [Compound 1-3]
not listed: [5]
at least 75%: all other assays above

CN(C)N=Cc1cccc(-c2cnc(-c3cncc(F)c3)s2)n1 [Compound 3-45]
at least 75%: all assays above

Clc1cc(Cl)cc(NN=Cc2cccc(-c3cnc(-c4cccnc4)s3)n2)c1 [Compound 3-10]
not listed: [5]
at least 75%: all other assays above

CC(=NNc1ccc(C(F)(F)F)cc1)c1cccc(-c2cnc(-c3cccnc3)s2)n1 [Compound 3-42]
at least 75%: [1] | [3] | [4]
